Experimental data published in PubChem BioAssay AID588590 (National Center for Advancing Translational Sciences (NCATS), 2011).
The whole screen tested about 390,000 compounds, of which about 4,000 (1%) were called active. Inconclusive results, whose numbers are uncertain, are shown with a selection of clear calls. Calls come from the whole dose curve; as a rule, active = well fitted inhibition curve with a large enough effect; inconclusive = small, poorly fitted or top-dose-only effect, or another doubt; inactive = no such curve, though single readings can be large or run the other way. Potencies beside an inconclusive call are fits to weak or partial responses and may not hold up.

Protein sequences, listed by entry. Tags and fused reporters are not part of them. Lines headed by an entry give the natural chain unless they say otherwise; changes in a name come on top.
UniProt Q9UNA4: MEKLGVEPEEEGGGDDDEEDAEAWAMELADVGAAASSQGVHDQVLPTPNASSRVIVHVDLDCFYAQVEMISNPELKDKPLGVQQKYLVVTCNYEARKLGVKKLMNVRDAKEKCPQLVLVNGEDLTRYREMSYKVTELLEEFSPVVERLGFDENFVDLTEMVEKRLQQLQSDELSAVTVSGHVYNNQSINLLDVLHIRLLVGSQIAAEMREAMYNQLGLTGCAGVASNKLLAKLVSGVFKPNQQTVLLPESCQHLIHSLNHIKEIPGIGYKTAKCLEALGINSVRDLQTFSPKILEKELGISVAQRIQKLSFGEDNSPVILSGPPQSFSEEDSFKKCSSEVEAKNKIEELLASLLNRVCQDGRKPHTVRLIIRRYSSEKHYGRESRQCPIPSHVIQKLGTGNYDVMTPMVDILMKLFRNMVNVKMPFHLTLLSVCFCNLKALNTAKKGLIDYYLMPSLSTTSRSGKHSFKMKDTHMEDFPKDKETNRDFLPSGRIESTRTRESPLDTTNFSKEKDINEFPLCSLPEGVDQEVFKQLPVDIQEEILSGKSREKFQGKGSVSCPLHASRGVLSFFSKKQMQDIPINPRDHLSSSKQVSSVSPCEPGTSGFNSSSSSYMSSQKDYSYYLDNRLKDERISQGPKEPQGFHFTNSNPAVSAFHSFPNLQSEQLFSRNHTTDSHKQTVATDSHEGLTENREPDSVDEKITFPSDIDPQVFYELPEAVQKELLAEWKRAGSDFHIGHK

What follows are compounds tested against DNA polymerase iota (Homo sapiens) (UniProt Q9UNA4) (assay: qHTS for Inhibitors of Polymerase Iota). Settings: Pol iota fluorescent replication assay, 10 min; series mostly up to 115 µM.
In short: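 Pol iota at 10 nM preincubated 15 min with compounds at room temperature; reaction started with fluorescent substrate, 50 nM final. Fluorescence read kinetically at 0 and 10 min; buffer-only wells as negative control.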
Potency is the fitted concentration of half-maximal effect.

Row | Compound | Potency
1 | COC(=O)C1=C(C)NC(C)=C(C(=O)OC)C1c1ccc(-c2cccc([N+](=O)[O-])c2)o1 | inconclusive: 8.91 µM [inhibitor, partial curve, poor fit]
2 | O=C(Cc1cccc(F)c1)NO | inactive
3 | CCn1nnc(NC(=O)c2cc3ccccc3o2)n1 | inconclusive: 6.31 µM [inhibitor, single point]
4 | CCCCC1=CC2=C(c3ccco3)C(=O)C(C)(OC(=O)c3ccc(OC)cc3)C(=O)C2=CN1CCc1ccccn1 (centres undefined) | active: 11.2 µM
5 | CC(=O)Nc1cccc(NC(=O)CSc2ncc(-c3ccc(Cl)cc3)n2Cc2ccco2)c1 | inconclusive: 39.8 µM [inhibitor, single point]
6 | CCOc1cc2c(C)cc(=O)oc2cc1Cl | inconclusive: 89.1 µM [inhibitor, single point]
7 | Cc1nn(-c2nc3ccccc3[nH]2)c(=O)c2ccccc12 | inactive
8 | Cc1ccc(NC(=O)CCC(=O)N/N=C/c2ccco2)c(C)c1 | inconclusive: 31.6 µM [inhibitor, partial curve, poor fit]
9 | O=C(CCc1ccc(O)cc1)N/N=C/c1coc2ccccc2c1=O | inconclusive: 35.5 µM [inhibitor, partial curve, poor fit]
10 | COc1ccc(OC)c2sc(N3CCN(c4ccccc4)CC3)nc12 | inconclusive: 39.8 µM [inhibitor, single point]
11 | Nc1nn(-c2ccccc2)c(N)c1N=Nc1ccccc1 | inconclusive: 89.1 µM [inhibitor, single point]
12 | Cc1ccc(S(=O)(=O)N2CCc3cc(C(=O)N(C)Cc4ccccc4)ccc32)cc1 | inconclusive: 89.1 µM [inhibitor, single point]
13 | Oc1ccc2ccc3[nH]cnc3c2c1 | inconclusive: 89.1 µM [inhibitor, single point]
14 | O=C(O)c1ccc([N+](=O)[O-])c2c1C(=O)c1ccccc1C2=O | inactive
15 | COc1ccc(NC(=O)c2ccc(Cl)nc2)cc1S(=O)(=O)N1CCOCC1 | inconclusive: 70.8 µM [inhibitor, partial curve]
16 | COc1ccc(CNC(=O)CC(C)n2nc(C)cc2C)cc1 (centres undefined) | inactive
17 | CCOC(=O)N1CCC(NC(=O)c2cnn(-c3ccc(F)cc3)c2-n2cccc2)CC1 | inactive
18 | O=C1C(NS(=O)(=O)c2cccs2)=C(N2CCN(c3cccc(C(F)(F)F)c3)CC2)C(=O)c2ccccc21 | inconclusive: 17.8 µM [inhibitor, partial curve, poor fit]
19 | CC1C/C(=C/c2ccccn2)C(=O)/C(=C/c2ccccn2)C1 (centres undefined) | inconclusive: 31.6 µM [inhibitor, partial curve]
20 | CN1CCN(C(=S)NC(=O)c2ccc(C(C)(C)C)cc2)CC1 | inconclusive: 89.1 µM [inhibitor, single point]
21 | O=C(Cn1[nH]c(=O)c2ccccc2c1=O)NCCN1C(=O)S/C(=C\c2ccccc2)C1=O | inconclusive: 17.8 µM [inhibitor, full curve]
22 | N#CC1=C(N)SC(N)=C(C#N)C1c1cccc(Oc2ccccc2)c1 | inconclusive: 39.8 µM [inhibitor, partial curve]

Row | Compound | Potency
23 | O=C(NNC(=O)C1C2C=CC(C2)C1C(=O)O)c1cc(Cl)ccc1O (centres undefined) | inactive
24 | O=C(O)CCN1C(=O)/C(=C\c2cccc(Oc3ccccc3)c2)SC1=S | active: 25.1 µM
25 | COC(=O)C1SCC2C(=O)N(Cc3cccc(C)c3)CC(=O)N21 (centres undefined) | inconclusive: 50.1 µM [inhibitor, partial curve, poor fit]
26 | O=C(O)c1cccc(-n2cccc2/C=C2\NC(=O)N(Cc3ccc(F)cc3)C2=O)c1 | active: 22.4 µM
27 | COc1cc(/C=C/C(=O)c2ccc(C)c([N+](=O)[O-])c2)cc(OC)c1O | inconclusive: 112 µM [inhibitor, partial curve, poor fit]
28 | COc1ccc(C(=O)O)cc1NC(=S)NC(=O)/C=C/c1ccc(C(C)C)cc1 | inconclusive: 17.8 µM [inhibitor, full curve]
29 | CSc1ncc(Cl)c(C(=O)Nc2cc(C(F)(F)F)ccc2Cl)n1 | inactive
30 | O=C(NCc1ccco1)c1cccc2c1C(=O)c1ccc(N3CCC(Cc4ccccc4)CC3)cc1S2(=O)=O | inactive
31 | CCOc1cc2[nH]c(=O)n(Cc3ccc(C(=O)N4CCN(c5ccccc5)CC4)cc3)c(=O)c2cc1OCC | inactive
32 | O=C(Nc1ccc(F)cc1F)c1cccc2c1C(=O)N(C1CCCCC1)C2 | inconclusive: 70.8 µM [inhibitor, partial curve, poor fit]
33 | Cc1ccc(CCN2CC(C(=O)NC3CCCCC3)CC2=O)cc1 (centres undefined) | inconclusive: 89.1 µM [inhibitor, single point]
34 | COc1ccc(C=CC(=O)c2cc(O)ccc2O)cc1 | inconclusive: 31.6 µM [inhibitor, single point]
35 | CC1Cc2ccccc2N1C(=O)C1CCCN1S(=O)(=O)c1ccc(Cl)cc1 (centres undefined) | inconclusive: 63.1 µM [inhibitor, full curve, poor fit]
36 | CC(=O)c1cccc(N=C2NC(=O)C(CO)(CO)S2)c1 | inconclusive: 12.6 µM [inhibitor, partial curve, poor fit]
37 | COc1ccc(S(=O)(=O)NCc2cccn2Cc2cccc(C)c2)cc1Cl | inconclusive: 39.8 µM [inhibitor, single point]
38 | COc1ccc(C2=NNC(=O)CC2)cc1 | inconclusive: 31.6 µM [inhibitor, partial curve, poor fit]
39 | N#Cc1ccccc1S(=O)(=O)N1CCN(C(=O)C2CCCC2)CC1 | inactive
40 | CCCn1c(SC(C)C(=O)O)nc2ccccc21 (centres undefined) | inconclusive: 3.16 µM [inhibitor, full curve, poor fit]
41 | N#CSCC(=O)c1cccc2ccccc12 | inconclusive: 17.8 µM [inhibitor, partial curve, poor fit]
42 | CC1(C)S[C@@H]2[C@H](NC(=O)[C@H](N)c3ccc(O)cc3)C(=O)N2[C@H]1C(=O)O | inconclusive: 44.7 µM [inhibitor, partial curve, poor fit]
43 | CSCCC(NS(=O)(=O)c1ccc2ccccc2c1)C(=O)O (centres undefined) | inconclusive: 28.2 µM [inhibitor, single point]
44 | Cc1c(CCOC(=O)c2ccc(N3CCOCC3)c([N+](=O)[O-])c2)sc[n+]1CC#N | inconclusive: 89.1 µM [inhibitor, partial curve]

Pulled one by one from the list above:
Row | Compound | Potency
29 | CSc1ncc(Cl)c(C(=O)Nc2cc(C(F)(F)F)ccc2Cl)n1 | inactive
32 | O=C(Nc1ccc(F)cc1F)c1cccc2c1C(=O)N(C1CCCCC1)C2 | inconclusive: 70.8 µM [inhibitor, partial curve, poor fit]
24 | O=C(O)CCN1C(=O)/C(=C\c2cccc(Oc3ccccc3)c2)SC1=S | active: 25.1 µM
25 | COC(=O)C1SCC2C(=O)N(Cc3cccc(C)c3)CC(=O)N21 (centres undefined) | inconclusive: 50.1 µM [inhibitor, partial curve, poor fit]

Next part

Row | Compound | Potency
45 | Cc1cccc(N2CCN(S(=O)(=O)c3cn(C)c(C)n3)CC2)c1C | inactive
46 | COc1ccc(S(=O)(=O)N(C)CC(=O)NCc2ccccn2)cc1 | inconclusive: 79.4 µM [inhibitor, single point]
47 | COc1cccc(-c2n[nH]c(=S)n2Cc2ccco2)c1 | inconclusive: 28.2 µM [inhibitor, full curve, poor fit]
48 | Cc1ccc(CNC(=O)c2ccc(CS(=O)(=O)Cc3ccc(F)cc3)o2)cc1 | inconclusive: 89.1 µM [inhibitor, single point]
49 | Cc1ccccc1CN1CCc2nc(N3CCN(c4ncccn4)CC3)ncc2C1 | inactive
50 | Cc1ccc(SCC(=O)Nc2ccc(S(=O)(=O)Nc3nccs3)cc2)cc1 | inconclusive: 1.41 µM [inhibitor, full curve, poor fit]
51 | O=C(Cn1c(=O)c2cccn2c2cccnc21)N1CCN(c2ccc(Cl)cc2)CC1 | inconclusive: 11.2 µM [inhibitor, partial curve, poor fit]
52 | CCOC(=O)c1sc(-c2ccccc2)cc1NC(=O)CSc1nnnn1C | inconclusive: 28.2 µM [inhibitor, partial curve, poor fit]
53 | CCN(c1ccc(NC(=O)COC(=O)c2ccc(C)s2)cc1)C(C)C | inconclusive: 10 µM [inhibitor, full curve, poor fit]
54 | COc1cc(C2Nn3c(nnc3-c3ccccc3OC)S2)ccc1O (centres undefined) | inconclusive: 14.1 µM [inhibitor, partial curve]
55 | CCS(=O)(=O)Nc1cccc(-c2cn3c(n2)SCC3)c1 | inactive
56 | COc1ccc2nc(NC(=O)c3nc(S(=O)(=O)Cc4ccccc4F)ncc3Cl)sc2c1 | inconclusive: 50.1 µM [inhibitor, partial curve, poor fit]
57 | CCc1nc(SCc2ccc(OC)c(Br)c2)n[nH]1 | inconclusive: 3.16 µM [inhibitor, full curve]
58 | COc1ccc(N2CCN(CCNC(=O)Nc3ccc(C)c(Cl)c3)CC2)cc1 | inconclusive: 2.24 µM [inhibitor, full curve, poor fit]
59 | N/C(=N\OC(=O)C12CC3CC(CC(C3)C1)C2)c1cccnc1 | inconclusive: 4.47 µM [inhibitor, full curve, poor fit]
60 | CCNS(=O)(=O)c1ccc(C(=O)OCc2cc(=O)oc3cc(OC)ccc23)cc1 | inconclusive: 39.8 µM [inhibitor, partial curve]
61 | Cc1ccc(S(=O)(=O)NCC(=O)N(CC(=O)NC(C)(C)C)Cc2cccs2)cc1 | inconclusive: 89.1 µM [inhibitor, single point]
62 | O=[N+]([O-])c1cc2no[n+]([O-])c2cc1N1CCCCC1 | inconclusive: 20 µM [inhibitor, full curve, poor fit]
63 | O=C(COC(=O)C1CCN(C(=O)c2ccc(Cl)cc2)CC1)c1ccco1 | inconclusive: 20 µM [inhibitor, full curve, poor fit]
64 | O=C(COc1ccc(F)cc1)Nc1nnc(S(=O)(=O)N2CCc3ccccc32)s1 | inconclusive: 89.1 µM [inhibitor, partial curve, poor fit]
